Results on three molecules are retold here after publication PMC11214836, “ILF3 safeguards telomeres from aberrant homologous recombination as a telomeric R-loop reader”.

By UniProt entry, the sequences of proteins in these tests, tags left out.
UniProt Q08211: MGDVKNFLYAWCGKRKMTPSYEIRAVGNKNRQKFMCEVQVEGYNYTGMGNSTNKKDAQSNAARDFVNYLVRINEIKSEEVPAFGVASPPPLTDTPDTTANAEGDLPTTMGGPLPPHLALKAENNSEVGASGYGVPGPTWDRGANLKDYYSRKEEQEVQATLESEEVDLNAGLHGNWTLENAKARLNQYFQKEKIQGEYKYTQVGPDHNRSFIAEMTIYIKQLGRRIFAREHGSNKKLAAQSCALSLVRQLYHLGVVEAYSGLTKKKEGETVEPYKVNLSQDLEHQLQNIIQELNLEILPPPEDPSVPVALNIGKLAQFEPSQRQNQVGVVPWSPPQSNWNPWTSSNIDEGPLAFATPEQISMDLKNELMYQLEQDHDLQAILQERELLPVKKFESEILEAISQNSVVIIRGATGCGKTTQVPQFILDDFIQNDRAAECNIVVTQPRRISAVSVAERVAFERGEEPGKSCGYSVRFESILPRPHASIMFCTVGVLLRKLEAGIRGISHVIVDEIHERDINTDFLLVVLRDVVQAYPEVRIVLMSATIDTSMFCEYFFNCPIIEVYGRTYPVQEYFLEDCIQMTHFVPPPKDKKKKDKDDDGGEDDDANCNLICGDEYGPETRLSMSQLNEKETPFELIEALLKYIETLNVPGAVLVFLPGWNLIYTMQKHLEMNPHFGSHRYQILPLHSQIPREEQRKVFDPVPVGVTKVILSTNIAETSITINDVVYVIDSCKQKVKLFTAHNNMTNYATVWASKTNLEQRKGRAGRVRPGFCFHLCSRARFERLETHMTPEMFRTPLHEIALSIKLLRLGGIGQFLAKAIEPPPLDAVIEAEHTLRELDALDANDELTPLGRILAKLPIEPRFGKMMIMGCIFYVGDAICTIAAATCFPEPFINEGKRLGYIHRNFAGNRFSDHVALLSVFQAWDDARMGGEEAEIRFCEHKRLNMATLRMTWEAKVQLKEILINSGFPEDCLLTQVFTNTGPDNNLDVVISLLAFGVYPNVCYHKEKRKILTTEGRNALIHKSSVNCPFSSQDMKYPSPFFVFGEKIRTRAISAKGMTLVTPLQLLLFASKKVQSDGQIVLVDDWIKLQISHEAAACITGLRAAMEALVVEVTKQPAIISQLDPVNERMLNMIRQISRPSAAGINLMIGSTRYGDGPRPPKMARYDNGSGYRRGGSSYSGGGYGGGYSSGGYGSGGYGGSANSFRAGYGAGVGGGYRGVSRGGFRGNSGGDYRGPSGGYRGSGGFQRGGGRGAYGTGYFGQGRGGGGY
UniProt Q96AP0: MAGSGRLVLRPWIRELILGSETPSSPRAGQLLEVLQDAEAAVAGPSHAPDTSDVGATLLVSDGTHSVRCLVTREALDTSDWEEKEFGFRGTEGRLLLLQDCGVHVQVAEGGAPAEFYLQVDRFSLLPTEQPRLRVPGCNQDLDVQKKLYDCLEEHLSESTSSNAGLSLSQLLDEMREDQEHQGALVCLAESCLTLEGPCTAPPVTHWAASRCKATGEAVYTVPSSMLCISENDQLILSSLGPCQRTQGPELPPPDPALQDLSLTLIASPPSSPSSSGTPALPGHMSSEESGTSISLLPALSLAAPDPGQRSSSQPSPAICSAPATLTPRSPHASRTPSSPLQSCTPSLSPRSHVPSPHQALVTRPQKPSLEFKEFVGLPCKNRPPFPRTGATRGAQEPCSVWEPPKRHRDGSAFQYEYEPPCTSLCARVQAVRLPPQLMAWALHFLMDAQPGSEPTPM
UniProt P54274: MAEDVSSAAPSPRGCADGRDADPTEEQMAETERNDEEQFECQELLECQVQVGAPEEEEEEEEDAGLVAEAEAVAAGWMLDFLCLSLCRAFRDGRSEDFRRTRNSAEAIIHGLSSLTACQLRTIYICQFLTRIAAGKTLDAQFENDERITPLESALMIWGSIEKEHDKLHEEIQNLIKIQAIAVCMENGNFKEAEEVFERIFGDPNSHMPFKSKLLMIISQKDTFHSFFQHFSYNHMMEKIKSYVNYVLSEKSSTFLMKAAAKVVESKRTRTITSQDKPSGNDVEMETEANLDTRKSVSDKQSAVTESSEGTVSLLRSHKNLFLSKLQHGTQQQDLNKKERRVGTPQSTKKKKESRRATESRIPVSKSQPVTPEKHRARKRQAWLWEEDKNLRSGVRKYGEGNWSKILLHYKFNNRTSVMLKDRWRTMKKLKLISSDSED

These are yes or no findings as the source states them, for the method shown. Binding seen in cells or lysates may run through a third protein. Some results given as binding are weak or reduced against the parent protein; the word gives no strength. Where a sequence is shown, tags or fusion partners need not be part of it.

One assay concerns the target SFB-tagged DHX9 (UniProt Q08211). In words: co-IP; HEK293T cells transiently co-expressing SFB-tagged DHX9 and GST-tagged proteins; IP with anti-FLAG antibodies, Western blot. For orientation: Immunoblotting shows a protein as a band on a membrane.
A further assay has as its target T1, NC-tagged RAP1 (UniProt Q9NYB0).
T1 sequence: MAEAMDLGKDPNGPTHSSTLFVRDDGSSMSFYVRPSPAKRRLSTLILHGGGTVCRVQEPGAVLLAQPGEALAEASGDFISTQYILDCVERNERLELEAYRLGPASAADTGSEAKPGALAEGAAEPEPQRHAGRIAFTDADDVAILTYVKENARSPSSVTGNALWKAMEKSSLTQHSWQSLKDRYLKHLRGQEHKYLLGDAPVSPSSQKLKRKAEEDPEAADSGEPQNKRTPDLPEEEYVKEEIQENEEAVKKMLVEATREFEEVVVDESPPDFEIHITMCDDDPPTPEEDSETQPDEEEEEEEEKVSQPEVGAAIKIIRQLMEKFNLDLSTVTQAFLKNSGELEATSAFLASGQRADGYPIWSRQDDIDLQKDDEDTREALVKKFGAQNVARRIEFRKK
Briefly: split reporter; pairwise BiFC in HEK293T cells, NVN- and NC-tagged (Venus YFP halves) proteins co-expressed, fluorescence complementation read by flow cytometry. For orientation: A flow cytometer gives signals particle by particle.

The target of another assay is T2, NC-tagged POT1 (UniProt Q9NUX5).
T2 sequence: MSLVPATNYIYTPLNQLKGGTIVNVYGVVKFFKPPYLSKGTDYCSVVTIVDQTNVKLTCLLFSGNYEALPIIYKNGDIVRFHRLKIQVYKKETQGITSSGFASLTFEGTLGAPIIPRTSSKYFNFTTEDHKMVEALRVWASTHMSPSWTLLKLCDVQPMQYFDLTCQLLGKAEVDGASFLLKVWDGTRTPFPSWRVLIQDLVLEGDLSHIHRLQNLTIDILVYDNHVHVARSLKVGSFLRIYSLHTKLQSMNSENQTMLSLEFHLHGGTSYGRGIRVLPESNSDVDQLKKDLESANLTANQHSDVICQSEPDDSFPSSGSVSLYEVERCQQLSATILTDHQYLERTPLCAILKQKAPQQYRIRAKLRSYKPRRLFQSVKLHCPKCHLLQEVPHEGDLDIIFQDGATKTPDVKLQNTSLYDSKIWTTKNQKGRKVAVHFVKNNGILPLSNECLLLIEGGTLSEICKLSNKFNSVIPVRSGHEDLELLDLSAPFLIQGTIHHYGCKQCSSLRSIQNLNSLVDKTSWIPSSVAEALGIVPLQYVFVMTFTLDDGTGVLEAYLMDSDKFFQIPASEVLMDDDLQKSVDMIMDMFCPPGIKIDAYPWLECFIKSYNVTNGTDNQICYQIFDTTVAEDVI
The assay is described as above.

The next assay has as its target NC-tagged TPP1 (UniProt Q96AP0). The assay is described as above.

As to “GST-tagged TRF1 (from UniProt P54274 1-439)”, in the assay with SFB-tagged DHX9, the binding entry is on record as “binds”.

B1: GST-tagged ILF3 (protein, UniProt Q12906 1-894)
chain: MRPMRIFVNDDRHVMAKHSSVYPTQEELEAVQNMVSHTERALKAVSDWIDEQEKGSSEQAESDNMDVPPEDDSKEGAGEQKTEHMTRTLRGVMRVGLVAKGLLLKGDLDLELVLLCKEKPTTALLDKVADNLAIQLAAVTEDKYEILQSVDDAAIVIKNTKEPPLSLTIHLTSPVVREEMEKVLAGETLSVNDPPDVLDRQKCLAALASLRHAKWFQARANGLKSCVIVIRVLRDLCTRVPTWGPLRGWPLELLCEKSIGTANRPMGAGEALRRVLECLASGIVMPDGSGIYDPCEKEATDAIGHLDRQQREDITQSAQHALRLAAFGQLHKVLGMDPLPSKMPKKPKNENPVDYTVQIPPSTTYAITPMKRPMEEDGEEKSPSKKKKKIQKKEEKAEPPQAMNALMRLNQLKPGLQYKLVSQTGPVHAPIFTMSVEVDGNSFEASGPSKKTAKLHVAVKVLQDMGLPTGAEGRDSSKGEDSAEETEAKPAVVAPAPVVEAVSTPSAAFPSDATAEQGPILTKHGKNPVMELNEKRRGLKYELISETGGSHDKRFVMEVEVDGQKFQGAGSNKKVAKAYAALAALEKLFPDTPLALDANKKKRAPVPVRGGPKFAAKPHNPGFGMGGPMHNEVPPPPNLRGRGRGGSIRGRGRGRGFGGANHGGYMNAGAGYGSYGYGGNSATAGYSQFYSNGGHSGNASGGGGGGGGGSSGYGSYYQGDNYNSPVPPKHAGKKQPHGGQQKPSYGSGYQSHQGQQQSYNQSPYSNYGPPQGKQKGYNHGQGSYSYSNSYNSPGGGGGSDYNYESKFNYSGSGGRSGGNSYGSGGASYNPGSHGGYGGGSGGGSSYQGKQGGYSQSNYNSPGSGQNYSGPPSSYQSSQGGYGRNADHSMNYQYR
For the molecule B1, the binding entry in the assay with SFB-tagged DHX9 is listed as “binds”.

B2: NVN-tagged ILF3 (protein, UniProt Q12906 1-894)
chain: MRPMRIFVNDDRHVMAKHSSVYPTQEELEAVQNMVSHTERALKAVSDWIDEQEKGSSEQAESDNMDVPPEDDSKEGAGEQKTEHMTRTLRGVMRVGLVAKGLLLKGDLDLELVLLCKEKPTTALLDKVADNLAIQLAAVTEDKYEILQSVDDAAIVIKNTKEPPLSLTIHLTSPVVREEMEKVLAGETLSVNDPPDVLDRQKCLAALASLRHAKWFQARANGLKSCVIVIRVLRDLCTRVPTWGPLRGWPLELLCEKSIGTANRPMGAGEALRRVLECLASGIVMPDGSGIYDPCEKEATDAIGHLDRQQREDITQSAQHALRLAAFGQLHKVLGMDPLPSKMPKKPKNENPVDYTVQIPPSTTYAITPMKRPMEEDGEEKSPSKKKKKIQKKEEKAEPPQAMNALMRLNQLKPGLQYKLVSQTGPVHAPIFTMSVEVDGNSFEASGPSKKTAKLHVAVKVLQDMGLPTGAEGRDSSKGEDSAEETEAKPAVVAPAPVVEAVSTPSAAFPSDATAEQGPILTKHGKNPVMELNEKRRGLKYELISETGGSHDKRFVMEVEVDGQKFQGAGSNKKVAKAYAALAALEKLFPDTPLALDANKKKRAPVPVRGGPKFAAKPHNPGFGMGGPMHNEVPPPPNLRGRGRGGSIRGRGRGRGFGGANHGGYMNAGAGYGSYGYGGNSATAGYSQFYSNGGHSGNASGGGGGGGGGSSGYGSYYQGDNYNSPVPPKHAGKKQPHGGQQKPSYGSGYQSHQGQQQSYNQSPYSNYGPPQGKQKGYNHGQGSYSYSNSYNSPGGGGGSDYNYESKFNYSGSGGRSGGNSYGSGGASYNPGSHGGYGGGSGGGSSYQGKQGGYSQSNYNSPGSGQNYSGPPSSYQSSQGGYGRNADHSMNYQYR
With B2, the binding entry in the assay with NC-tagged RAP1, with NC-tagged POT1 and in the assay with NC-tagged TPP1 was “binds” throughout.
